Like-named read-outs stand apart in the source and are kept apart here. These are yes or no findings as the source states them, for the method shown. Binding seen in cells or lysates may run through a third protein. Some binding calls cover weakened binding; strength is not graded here. For some of these results: Tags and fused reporters may be left off the sequences shown. Each block holds one binder with its values, some of them ahead of it.
Key:
Assay in all cases: pull-down
[1] = target: T1, 6His-Swi6 (heterochromatin protein Swi6^HP1) (S. pombe) (UniProt P40381)
T1 sequence: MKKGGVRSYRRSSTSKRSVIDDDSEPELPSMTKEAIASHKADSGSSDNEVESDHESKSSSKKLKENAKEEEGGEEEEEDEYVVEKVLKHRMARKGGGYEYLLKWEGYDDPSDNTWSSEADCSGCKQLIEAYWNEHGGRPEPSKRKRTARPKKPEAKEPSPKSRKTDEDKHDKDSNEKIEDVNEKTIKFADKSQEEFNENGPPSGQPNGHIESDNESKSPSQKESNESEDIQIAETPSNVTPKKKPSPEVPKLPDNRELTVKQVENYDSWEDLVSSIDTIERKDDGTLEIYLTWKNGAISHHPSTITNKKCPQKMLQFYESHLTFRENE

By UniProt entry, the sequences of proteins in these tests, tags left out.
UniProt O60016, whole entry: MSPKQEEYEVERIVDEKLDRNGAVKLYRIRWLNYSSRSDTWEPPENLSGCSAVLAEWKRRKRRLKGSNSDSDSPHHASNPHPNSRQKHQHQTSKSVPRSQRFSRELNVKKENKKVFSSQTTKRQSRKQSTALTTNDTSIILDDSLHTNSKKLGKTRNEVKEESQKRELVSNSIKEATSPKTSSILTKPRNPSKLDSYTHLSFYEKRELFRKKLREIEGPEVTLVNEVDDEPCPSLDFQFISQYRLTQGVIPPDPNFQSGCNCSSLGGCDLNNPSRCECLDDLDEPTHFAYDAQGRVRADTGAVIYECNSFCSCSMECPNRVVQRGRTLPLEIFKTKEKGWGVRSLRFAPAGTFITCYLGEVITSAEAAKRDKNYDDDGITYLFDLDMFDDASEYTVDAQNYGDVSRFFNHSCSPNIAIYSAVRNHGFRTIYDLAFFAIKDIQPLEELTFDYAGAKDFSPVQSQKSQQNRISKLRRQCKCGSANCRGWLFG

[2] = target: T1, 6His-Swi6 (heterochromatin protein Swi6^HP1) (S. pombe); remark: listed apart in the source
GST-Clr4 (S. pombe) = GST-Clr4 (S. pombe) (UniProt O60016)
GST-Clr3 (S. pombe) = target: T2, GST-Clr3 (S. pombe) (UniProt P56523)
T2 sequence: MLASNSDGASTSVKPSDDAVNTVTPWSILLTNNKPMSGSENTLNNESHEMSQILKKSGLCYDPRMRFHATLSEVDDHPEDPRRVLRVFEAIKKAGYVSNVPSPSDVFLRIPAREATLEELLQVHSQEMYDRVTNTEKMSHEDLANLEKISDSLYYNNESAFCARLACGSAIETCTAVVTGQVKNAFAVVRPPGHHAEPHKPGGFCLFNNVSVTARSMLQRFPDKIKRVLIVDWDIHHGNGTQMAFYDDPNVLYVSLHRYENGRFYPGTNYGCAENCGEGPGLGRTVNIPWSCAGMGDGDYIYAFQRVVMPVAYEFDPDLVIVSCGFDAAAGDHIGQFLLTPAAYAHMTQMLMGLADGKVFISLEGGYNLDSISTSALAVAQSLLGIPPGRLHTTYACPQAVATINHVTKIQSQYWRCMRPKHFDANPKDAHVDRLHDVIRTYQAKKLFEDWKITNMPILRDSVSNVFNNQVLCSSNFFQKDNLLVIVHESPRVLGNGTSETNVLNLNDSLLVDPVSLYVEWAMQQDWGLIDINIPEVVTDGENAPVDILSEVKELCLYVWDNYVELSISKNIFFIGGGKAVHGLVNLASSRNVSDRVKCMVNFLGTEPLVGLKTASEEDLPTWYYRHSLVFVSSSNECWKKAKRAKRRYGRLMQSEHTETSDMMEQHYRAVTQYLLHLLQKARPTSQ

MBP-Clr6 (S. pombe) = target: T3, MBP-Clr6 (S. pombe) (UniProt O59702)
T3 sequence: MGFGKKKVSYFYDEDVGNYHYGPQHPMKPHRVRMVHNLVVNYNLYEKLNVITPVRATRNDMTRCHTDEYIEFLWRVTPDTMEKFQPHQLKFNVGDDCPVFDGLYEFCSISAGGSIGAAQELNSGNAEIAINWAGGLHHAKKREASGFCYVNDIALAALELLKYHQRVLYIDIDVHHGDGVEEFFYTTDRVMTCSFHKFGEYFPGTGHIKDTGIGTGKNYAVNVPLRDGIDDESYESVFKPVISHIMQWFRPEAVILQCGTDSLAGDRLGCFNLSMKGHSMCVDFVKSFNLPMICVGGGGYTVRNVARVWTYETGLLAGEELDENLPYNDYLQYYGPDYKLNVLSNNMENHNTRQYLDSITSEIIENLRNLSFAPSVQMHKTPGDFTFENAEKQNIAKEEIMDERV

binding [1]: binds | binding [2]: binds weakly
B1: HA-Atf1 (wild type, expressed from P_(sty1)-HA-atf1) (protein, UniProt P52890 1-566)
chain: MSPSPVNTSTEPASVAAVSNGNATASSTQVPENNQSDSFAPPSNNSQQNQQSSTIAPNGGAGSVANANPADQSDGVTPSFVGSLKLDYEPNPFEHSFGSTASVGQGNPSLNRNPSLSNIPSGVPPAFARTLLPPVSSIASPDILSGAPGIASPLGYPAWSAFTRGTMHNPLSPAIYDATLRPDYLNNPSDASAAARFSSGTGFTPGVNEPFRSLLTPTGAGFPAPSPGTANLLGFHTFDSQFPDQYRFTPRDGKPPVVNGTNGDQSDYFGANAAVHGLCLLSQVPDQQQKLQQPISSENDQAASTTANNLLKQTQQQTFPDSIRPSFTQNTNPQAVTGTMNPQASRTQQQPMYFMGSQQFNGMPSVYGDTVNPADPSLTLRQTTDFSGQNAENGSTNLPQKTSNSDMPTANSMPVKLENGTDYSTSQEPSSNANNQSSPTSSINGKASSESANGTSYSKGSSRRNSKNETDEEKRKSFLERNRQAALKCRQRKKQWLSNLQAKVEFYGNENEILSAQVSALREEIVSLKTLLIAHKDCPVAKSNSAAVATSVIGSGDLAQRINLGY

binding (GST-Clr4 (S. pombe)): binds | binding (GST-Clr3 (S. pombe)): binds | binding [1]: binds | binding (MBP-Clr6 (S. pombe)): binds
B2: Atf1 (endogenous, in lysates of wild type or wis1-DD yeast strains) (protein, UniProt P52890 1-566)
chain: B1 chain

binding [1]: binds
B3: Pcr1-3xFlag (protein, UniProt Q09926 1-171)
chain: MTAKKKEVDDEKRRRILERNRIAASKFRQKKKEWIKELEQTANAAFEQSKRLQLLLSQLQQEAFRLKSQLLAHQGCQCSVKIRSVLTDFQTAHNALHSQHMAYRPVQPPPGDNMLESVVSVSPTQMHPSLQGLPPNQHPQMPPSSQQPNSDDVQQHMFSAAGLPRSLGGPI

Source: publication PMC10863984
